These are yes or no findings as the source states them, for the method shown. In cells and extracts the contact can be indirect. Binding calls can cover weak binding; strength is not graded here.

Chains of the proteins cited; added tags and fusions are not shown. Lines headed by an entry give the natural chain unless they say otherwise; changes in a name come on top.
UniProt Q14145: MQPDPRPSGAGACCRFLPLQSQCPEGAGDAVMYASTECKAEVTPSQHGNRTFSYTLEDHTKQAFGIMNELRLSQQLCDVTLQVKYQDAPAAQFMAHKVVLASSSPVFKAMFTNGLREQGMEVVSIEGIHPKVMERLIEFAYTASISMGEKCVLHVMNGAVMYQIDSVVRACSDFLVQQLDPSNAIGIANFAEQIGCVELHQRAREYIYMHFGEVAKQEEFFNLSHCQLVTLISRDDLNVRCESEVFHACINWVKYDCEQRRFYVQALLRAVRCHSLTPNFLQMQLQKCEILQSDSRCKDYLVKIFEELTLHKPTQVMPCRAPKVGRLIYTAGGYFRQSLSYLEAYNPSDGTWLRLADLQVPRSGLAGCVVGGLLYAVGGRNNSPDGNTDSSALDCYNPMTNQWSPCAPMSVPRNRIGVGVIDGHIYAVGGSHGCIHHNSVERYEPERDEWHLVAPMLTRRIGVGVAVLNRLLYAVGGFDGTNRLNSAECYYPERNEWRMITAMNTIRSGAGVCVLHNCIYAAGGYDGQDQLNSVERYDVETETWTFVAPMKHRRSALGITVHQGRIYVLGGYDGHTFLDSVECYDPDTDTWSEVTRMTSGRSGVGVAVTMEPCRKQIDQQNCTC
UniProt P48436: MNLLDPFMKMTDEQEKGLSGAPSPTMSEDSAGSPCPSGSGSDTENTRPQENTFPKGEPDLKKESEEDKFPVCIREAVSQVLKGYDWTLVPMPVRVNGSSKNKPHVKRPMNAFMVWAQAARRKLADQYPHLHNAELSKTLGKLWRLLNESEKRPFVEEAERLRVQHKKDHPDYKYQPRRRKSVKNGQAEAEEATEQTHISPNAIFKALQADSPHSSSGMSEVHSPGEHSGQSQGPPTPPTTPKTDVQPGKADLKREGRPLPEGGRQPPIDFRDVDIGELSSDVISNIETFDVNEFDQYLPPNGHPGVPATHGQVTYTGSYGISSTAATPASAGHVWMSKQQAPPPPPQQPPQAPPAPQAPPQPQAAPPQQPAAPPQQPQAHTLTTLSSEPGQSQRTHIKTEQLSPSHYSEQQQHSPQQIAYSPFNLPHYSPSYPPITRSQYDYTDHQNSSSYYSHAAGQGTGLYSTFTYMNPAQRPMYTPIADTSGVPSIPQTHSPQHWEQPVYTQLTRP

Assay [1] has as its target KEAP1 (tag not told for these experiments) (human) (UniProt Q14145). In words: co-IP; HEK293T cells expressing Flag-tagged WT SOX9, truncated SOX9 mutants or SOX9 degron deletion mutants.
Assay [2] concerns the target Flag-KEAP1 G333S (lung carcinoma-associated mutant) (human) (UniProt Q14145). Kind of assay: co-IP; HEK293T cells expressing Flag-tagged WT KEAP1 or lung carcinoma-associated KEAP1 mutants.

In the case of “Flag-SOX9 degron 1 deletion mutant (ΔDeg1) (from UniProt P48436)”, the binding entry in assay [1] was “binds”.

“SOX9 (HEK293T cells; tag not told for these experiments) (from UniProt P48436 1-509)”: the binding result in assay [2] is listed as “binds weakly”.

The values above are taken from PMC7610265.
